Reference: the supplement of paper PMC8728848
The list shows a part of the results.

What was measured:
Assay in all cases: glycan array binding signal (z-score within array); higher = stronger binding
Conditions in all cases: glycan notation: IUPAC condensed, linker removed
Fuc(a1-2)Gal = molecular target: Fuc(a1-2)Gal
How it was run: (§1)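 The Consortium for Functional Glycomics database supplied 3228 glycan arrays, of which those lacking an available protein sequence were dropped. The binding signal, a within-array Z-score, was averaged across arrays of the same protein sequence and across linkers. Negative scores can be read as non-binding.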

Fuc(a1-2)Gal(b1-3)GalNAc = molecular target: Fuc(a1-2)Gal(b1-3)GalNAc
How it was run: as §1

[1] = molecular target: Fuc(a1-2)Gal(b1-3)GalNAc(a1-3)[Fuc(a1-2)]Gal(b1-4)Glc
How it was run: as §1

[2] = molecular target: Fuc(a1-2)Gal(b1-3)GalNAc(a1-3)[Fuc(a1-2)]Gal(b1-4)GlcNAc
How it was run: as §1

[3] = molecular target: Fuc(a1-2)Gal(b1-3)GalNAc(b1-3)Gal
How it was run: as §1

[4] = molecular target: Fuc(a1-2)Gal(b1-3)GalNAc(b1-3)Gal(a1-4)Gal(b1-4)Glc
How it was run: as §1

[5] = molecular target: Fuc(a1-2)Gal(b1-3)GalNAc(b1-4)[Neu5Ac(a2-3)]Gal(b1-4)Glc
How it was run: as §1

Fuc(a1-2)Gal(b1-3)GlcNAc = molecular target: Fuc(a1-2)Gal(b1-3)GlcNAc
How it was run: as §1

[6] = molecular target: Fuc(a1-2)Gal(b1-3)GlcNAc(b1-2)Man(a1-3)[Fuc(a1-2)Gal(b1-3)GlcNAc(b1-2)Man(a1-6)]Man(b1-4)GlcNAc(b1-4)GlcNAc
How it was run: as §1

[7] = molecular target: Fuc(a1-2)Gal(b1-3)GlcNAc(b1-2)Man(a1-3)[Fuc(a1-2)Gal(b1-3)GlcNAc(b1-2)Man(a1-6)]Man(b1-4)GlcNAc(b1-4)[Fuc(a1-6)]GlcNAc
How it was run: as §1

[8] = molecular target: Fuc(a1-2)Gal(b1-3)GlcNAc(b1-3)Gal(b1-4)Glc
How it was run: as §1

[9] = molecular target: Fuc(a1-2)Gal(b1-3)GlcNAc(b1-3)GalNAc
How it was run: as §1

[10] = molecular target: Fuc(a1-2)Gal(b1-3)GlcNAc(b1-3)[Fuc(a1-2)Gal(b1-3)GlcNAc(b1-6)]GalNAc
How it was run: as §1

[11] = molecular target: Fuc(a1-2)Gal(b1-3)GlcNAc(b1-3)[Gal(b1-4)GlcNAc(b1-6)]Gal(b1-4)Glc
How it was run: as §1

[12] = molecular target: Fuc(a1-2)Gal(b1-3)GlcNAc(b1-3)[Neu5Ac(a2-6)Gal(b1-4)GlcNAc(b1-6)]Gal(b1-4)Glc
How it was run: as §1

[13] = molecular target: Fuc(a1-2)Gal(b1-3)GlcNAc6S
How it was run: as §1

[14] = molecular target: Fuc(a1-2)Gal(b1-3)[Fuc(a1-4)]GlcNAc
How it was run: as §1

[15] = molecular target: Fuc(a1-2)Gal(b1-3)[Fuc(a1-4)]GlcNAc(b1-2)Man(a1-3)[Fuc(a1-2)Gal(b1-3)[Fuc(a1-4)]GlcNAc(b1-2)Man(a1-3)]Man(b1-4)GlcNAc(b1-4)GlcNAc
How it was run: as §1

[16] = molecular target: Fuc(a1-2)Gal(b1-3)[Fuc(a1-4)]GlcNAc(b1-2)Man(a1-3)[Fuc(a1-2)Gal(b1-3)[Fuc(a1-4)]GlcNAc(b1-2)Man(a1-6)]Man(b1-4)GlcNAc(b1-4)[Fuc(a1-6)]GlcNAc(b1-4)[Fuc(a1-6)]GlcNAc
How it was run: as §1

[17] = molecular target: Fuc(a1-2)Gal(b1-3)[Fuc(a1-4)]GlcNAc(b1-3)[Fuc(a1-3)[Gal(b1-4)]GlcNAc(b1-6)]Gal(b1-4)Glc
How it was run: as §1

[18] = molecular target: Fuc(a1-2)Gal(b1-3)[Fuc(a1-4)]GlcNAc(b1-3)[Gal(b1-4)GlcNAc(b1-6)]Gal(b1-4)Glc
How it was run: as §1

[19] = molecular target: Fuc(a1-2)Gal(b1-4)Fuc(a1-3)]GlcNAc(b1-2)Man(a1-3)[Fuc(a1-2)Gal(b1-4)[Fuc(a1-3)]GlcNAc(b1-2)Man(a1-6)]Man(b1-4)GlcNAc(b1-4)GlcNAc
How it was run: as §1

Fuc(a1-2)Gal(b1-4)Glc = molecular target: Fuc(a1-2)Gal(b1-4)Glc
How it was run: as §1

Fuc(a1-2)Gal(b1-4)Glc6S = molecular target: Fuc(a1-2)Gal(b1-4)Glc6S
How it was run: as §1

Fuc(a1-2)Gal(b1-4)GlcNAc = molecular target: Fuc(a1-2)Gal(b1-4)GlcNAc
How it was run: as §1

[20] = molecular target: Fuc(a1-2)Gal(b1-4)GlcNAc(b1-2)Man
How it was run: as §1

[21] = molecular target: Fuc(a1-2)Gal(b1-4)GlcNAc(b1-2)Man(a1-3)[Fuc(a1-2)Gal(b1-4)GlcNAc(b1-2)Man(a1-6)]Man(b1-4)GlcNAc(b1-4)GlcNAc
How it was run: as §1

[22] = molecular target: Fuc(a1-2)Gal(b1-4)GlcNAc(b1-2)Man(a1-3)[Fuc(a1-2)Gal(b1-4)GlcNAc(b1-2)Man(a1-6)]Man(b1-4)GlcNAc(b1-4)[Fuc(a1-6)]GlcNAc
How it was run: as §1

[23] = molecular target: Fuc(a1-2)Gal(b1-4)GlcNAc(b1-2)[Fuc(a1-2)Gal(b1-4)GlcNAc(b1-4)]Man(a1-3)[Fuc(a1-2)Gal(b1-4)GlcNAc(b1-2)Man(a1-6)]Man(b1-4)GlcNAc(b1-4)GlcNAc
How it was run: as §1

[24] = molecular target: Fuc(a1-2)Gal(b1-4)GlcNAc(b1-3)Gal(b1-4)GlcNAc
How it was run: as §1

[25] = molecular target: Fuc(a1-2)Gal(b1-4)GlcNAc(b1-3)Gal(b1-4)GlcNAc(b1-2)Man(a1-3)[Fuc(a1-2)Gal(b1-4)GlcNAc(b1-3)Gal(b1-4)GlcNAc(b1-2)Man(a1-6)]Man(b1-4)GlcNAc(b1-4)GlcNAc
How it was run: as §1

[26] = molecular target: Fuc(a1-2)Gal(b1-4)GlcNAc(b1-3)Gal(b1-4)GlcNAc(b1-3)Gal(b1-4)GlcNAc
How it was run: as §1

[27] = molecular target: Fuc(a1-2)Gal(b1-4)GlcNAc(b1-3)GalNAc
How it was run: as §1

[28] = molecular target: Fuc(a1-2)Gal(b1-4)GlcNAc(b1-3)[Fuc(a1-2)Gal(b1-4)GlcNAc(b1-6)]GalNAc
How it was run: as §1

[29] = molecular target: Fuc(a1-2)Gal(b1-4)GlcNAc(b1-3)[Fuc(a1-3)[Gal(b1-4)]GlcNAc(b1-6)]Gal(b1-4)Glc
How it was run: as §1

[30] = molecular target: Fuc(a1-2)Gal(b1-4)GlcNAc(b1-6)GalNAc
How it was run: as §1

[31] = molecular target: Fuc(a1-2)Gal(b1-4)GlcNAc6S
How it was run: as §1

[32] = molecular target: Fuc(a1-2)Gal(b1-4)[Fuc(a1-3)]GlcNAc
How it was run: as §1

[33] = molecular target: Fuc(a1-2)Gal(b1-4)[Fuc(a1-3)]GlcNAc(b1-2)Man(a1-3)[Fuc(a1-2)Gal(b1-4)[Fuc(a1-3)]GlcNAc(b1-2)Man(a1-6)]Man(b1-4)GlcNAc(b1-4)[Fuc(a1-6)]GlcNAc
How it was run: as §1

[34] = molecular target: Fuc(a1-2)Gal(b1-4)[Fuc(a1-3)]GlcNAc(b1-2)[Fuc(a1-2)Gal(b1-4)[Fuc(a1-3)]GlcNAc(b1-4)]Man(a1-3)[Fuc(a1-2)Gal(b1-4)[Fuc(a1-3)]GlcNAc(b1-2)Man(a1-6)]Man(b1-4)GlcNAc(b1-4)GlcNAc
How it was run: as §1

[35] = molecular target: Fuc(a1-2)Gal(b1-4)[Fuc(a1-3)]GlcNAc(b1-3)Gal(b1-4)[Fuc(a1-3)]GlcNAc
How it was run: as §1

[36] = molecular target: Fuc(a1-2)Gal(b1-4)[Fuc(a1-3)]GlcNAc(b1-3)Gal(b1-4)[Fuc(a1-3)]GlcNAc(b1-3)Gal(b1-4)[Fuc(a1-3)]GlcNAc
How it was run: as §1

[37] = molecular target: Fuc(a1-2)Gal(b1-4)[Fuc(a1-3)]GlcNAc(b1-3)GalNAc
How it was run: as §1

[38] = molecular target: Fuc(a1-2)Gal(b1-4)[Fuc(a1-3)]GlcNAc(b1-3)[Neu5Ac(a2-6)Gal(b1-4)GlcNAc(b1-6)]Gal(b1-4)Glc
How it was run: as §1

[39] = molecular target: Fuc(a1-2)Gal3S(b1-4)GlcNAc
How it was run: as §1

B1: Tp0751, 83732 (protein)
chain: MSYYHHHHHHLESTSLYKKAGFQHGHVPPRRIPPHDTFGALPTAALPSNARDTAAHPSDTADNTSGSSTTTDPRSHGNAPPAPVGGAAQTHTQPPVQTAMRIALWNRATHGEQGALQHLLAGLWIQTEISPNSGDIHPLLFFDREHAEITFSRASVQEIFLVDSAHTHRKTVSFLTRNTAISSIRRRLEVTFESHEVIHVRAVEDVARLKIGSTSMWDGQYTRYHAGPASAPSP
Fuc(a1-2)Gal
  glycan array binding signal (z-score): -0.265
Fuc(a1-2)Gal(b1-3)GalNAc
  glycan array binding signal (z-score): -0.473
[1]
  glycan array binding signal (z-score): -0.469
[2]
  glycan array binding signal (z-score): -0.085
[3]
  glycan array binding signal (z-score): 0.841
[4]
  glycan array binding signal (z-score): -0.023
[5]
  glycan array binding signal (z-score): 0.023
Fuc(a1-2)Gal(b1-3)GlcNAc
  glycan array binding signal (z-score): -0.361
[6]
  glycan array binding signal (z-score): -0.259
[7]
  glycan array binding signal (z-score): -0.149
[8]
  glycan array binding signal (z-score): -0.349
[9]
  glycan array binding signal (z-score): -0.189
[10]
  glycan array binding signal (z-score): -0.266
[11]
  glycan array binding signal (z-score): -0.289
[12]
  glycan array binding signal (z-score): -0.484
[13]
  glycan array binding signal (z-score): 0.951
[14]
  glycan array binding signal (z-score): -0.067
[15]
  glycan array binding signal (z-score): 0.093
[16]
  glycan array binding signal (z-score): -0.103
[17]
  glycan array binding signal (z-score): -0.049
[18]
  glycan array binding signal (z-score): -0.218
[19]
  glycan array binding signal (z-score): 0.856
Fuc(a1-2)Gal(b1-4)Glc
  glycan array binding signal (z-score): 0.269
Fuc(a1-2)Gal(b1-4)Glc6S
  glycan array binding signal (z-score): -0.309
Fuc(a1-2)Gal(b1-4)GlcNAc
  glycan array binding signal (z-score): -0.115
[20]
  glycan array binding signal (z-score): 0.088
[21]
  glycan array binding signal (z-score): -0.572
[22]
  glycan array binding signal (z-score): 1.64
[23]
  glycan array binding signal (z-score): -0.339
[24]
  glycan array binding signal (z-score): -0.218
[25]
  glycan array binding signal (z-score): 1.32
[26]
  glycan array binding signal (z-score): 0.072
[27]
  glycan array binding signal (z-score): -0.474
[28]
  glycan array binding signal (z-score): 0.326
[29]
  glycan array binding signal (z-score): -0.376
[30]
  glycan array binding signal (z-score): -0.071
[31]
  glycan array binding signal (z-score): -0.549
[32]
  glycan array binding signal (z-score): 0.263
[33]
  glycan array binding signal (z-score): 0.919
[34]
  glycan array binding signal (z-score): -0.059
[35]
  glycan array binding signal (z-score): -0.214
[36]
  glycan array binding signal (z-score): 0.013
[37]
  glycan array binding signal (z-score): 0.182
[38]
  glycan array binding signal (z-score): -0.367
[39]
  glycan array binding signal (z-score): -0.72
